Numbering of substitutions follows the chain as printed. These are yes or no findings as the source states them, for the method shown. In cells and extracts the contact can be indirect. Some binding calls cover weakened binding; strength is not graded here. Tags and fused reporters may be left off the sequences shown.

Sequences of proteins named here, by UniProt entry; tags and fusion partners are left off.
UniProt Q92558: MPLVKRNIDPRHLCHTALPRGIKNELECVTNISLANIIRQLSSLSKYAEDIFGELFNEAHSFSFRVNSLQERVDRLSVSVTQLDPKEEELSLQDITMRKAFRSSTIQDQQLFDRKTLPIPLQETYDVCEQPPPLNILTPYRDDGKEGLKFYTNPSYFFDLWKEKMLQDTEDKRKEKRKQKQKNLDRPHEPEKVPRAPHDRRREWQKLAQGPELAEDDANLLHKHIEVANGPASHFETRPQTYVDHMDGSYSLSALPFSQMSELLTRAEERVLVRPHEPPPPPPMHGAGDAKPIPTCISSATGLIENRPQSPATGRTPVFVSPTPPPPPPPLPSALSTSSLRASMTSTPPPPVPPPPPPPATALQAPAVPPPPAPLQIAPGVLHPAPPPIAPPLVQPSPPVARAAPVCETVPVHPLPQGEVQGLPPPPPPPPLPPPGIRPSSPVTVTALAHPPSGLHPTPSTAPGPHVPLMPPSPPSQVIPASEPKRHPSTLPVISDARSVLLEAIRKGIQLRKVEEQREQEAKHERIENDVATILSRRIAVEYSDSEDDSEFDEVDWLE

This is an account of results in publication PMC9898538.

This experiment concerns the target WAVE1 (UniProt Q92558). Briefly: co-IP; COS7 cells cotransfected with CaMKII and wild-type or 3S3A nArgBP2_(959-1196), with or without ionomycin before lysis; 1% Triton X-100 buffer (20 mM Tris pH 7.5, 137 mM NaCl, 10% glycerol, 2 mM EDTA); primary antibody 2 h at 4 °C, then Protein A-Sepharose.

B1: EGFP-nArgBP2_(959-1196) (domain or fragment, UniProt O35413 959-1196)
chain: EVKLPAKAVYDFKAQTSKELSFKKGDTVYILRKIDQNWYEGEHHGRVGIFPISYVEKLTPPEKAQPARPPPPVQPGEIGEAIAKYNFNADTNVELSLRKGDRIILLKRVDQNWYEGKIPGTNRQGIFPVSYVEVVKRNTKGSEDYPDPPLPHSYSSDRIYSLSSNKPQRPVFSHENIQGGGEPFQALYNYTPRNEDELELRESDVVDVMEKCDDGWFVGTSRRTKFFGTFPGNYVKRL
Turning to B1, the binding result is reported as “binds”.

B2: EGFP-nArgBP2_(959-1196)-3S3A (domain or fragment, UniProt O35413 959-1196)
chain: B1 chain with S17A, S161A, S221A
B2: the binding entry is “binds”.
